Here are results for one molecule from article PMC6336269.

No constants are given. Whether binding was seen depends on the method and setting. Binding seen in cells or lysates may run through a third protein. These calls come from enrichment with a bait or labelling near it, and not all partners need be listed. Sequences can lack the tags named with a protein.

The target of this test is T1, TAP tagged Rio2 (S. cerevisiae), P40160.
T1 chain: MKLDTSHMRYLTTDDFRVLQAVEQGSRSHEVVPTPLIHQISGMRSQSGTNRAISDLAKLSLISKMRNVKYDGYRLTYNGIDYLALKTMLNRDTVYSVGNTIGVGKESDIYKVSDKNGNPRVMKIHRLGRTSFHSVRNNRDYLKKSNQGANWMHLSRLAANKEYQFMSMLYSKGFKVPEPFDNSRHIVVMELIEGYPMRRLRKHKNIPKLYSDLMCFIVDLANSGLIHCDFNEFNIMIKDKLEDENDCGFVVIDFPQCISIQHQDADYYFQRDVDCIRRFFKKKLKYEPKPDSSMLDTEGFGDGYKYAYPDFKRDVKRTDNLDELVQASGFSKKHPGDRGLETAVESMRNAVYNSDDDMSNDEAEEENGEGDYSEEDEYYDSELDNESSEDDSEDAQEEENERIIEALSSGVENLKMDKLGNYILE
The test is described as follows: affinity purification with mass spectrometry; TAP tagged Rio2 with associated SSU precursors purified from yeast cellular extracts on rabbit immunoglobulin G coupled to magnetic beads; semi-quantitative mass spectrometry with iTRAQ 4plex; wild type cells and cells shifted to glucose for two or four hours to deplete rpS0, rpS2, rpS21, rpS3, rpS20 or rpS29. The conditions noted are these: remark: other sources report otherwise.

B1: Rrp12, Q12754 1-1228 (protein)
chain: MDQDKVAFLLELEDKLAKIRSQVNSKLENQKHIAIILTAVEENIAGQATNDVSKNIVNYIISFMSLLDQAVDPSTHEIKDIQLASSSTYLLDLIFHYSPKVLLRSKFSEILTKIAPCITAEKANAPLIRAAIGCLESLLIAQDAQAWNNTYDLNVTPKRGLQGILELSLDVRPKVRKRALDAVHAVLLNPPVAPTAEHVAAVFVADFCDKQLAGILNDLSNLSNKQLKAQKTKEDINASVMRSLRLITSVVSTGQWPSSQIEPLCDVLLGVTKSSEQYLVSASFECFESMFKTMAETTISSGLAENKYLRVLDTIFALKPSNVDTLLTKSWIAVVIKGMSTYATHQPLKALRKIPGVFHIMCTYLASETPEVYQAASQCLISILSESVKDDLLLYTPSVDEKVFKNVDEIISQIAKTFIDFLSIRYSHCSREILKILVAAFNKFRYRSNPHFLKSLKIVDTWRVNEEQFMDLRNEIELVIGASISAMGPEMILAEAPLNLDNPSSERPGRAWLLPLIRDYTKNANLATFQNELAPYIKSFQSKFDKVPEESIQLRVFQTIVDQIWSTLPRFCELPMDLRESFTDEFASELSSLLYSEVELRTTICHALKVLAESNVSYAEESSSHNVLLLQRFPISEAQKNIEYLSTKSTNLLAVLFNVYTQTTPNARSYILETIDQYLKITSKEDLEKTFNNVCGLLKNSMNEESSGNVNKEKKKPQLTATLLDLIICMITYLPVSSYSALFSMFSLTVNSADALIQKRAYRIITKLSELKSGSTAVAQFISDIENVMVDSASSVQTSAKAARLTAIKTIVELLPLDHLDFIVRTVAEVILSTKDVNEKSRETAFDTLICMGRKMNEPNGIIKLFQIPGYDPTTPDQSSSISEFFKIISAGLIGESQHMVSSSITGYACLVFEFKNELDSGILMDIYDTIELYLTSNSREIVKSAIGFTKVCVLGLPEELMRPKVPELLLKLLRWSHEHTGHFKAKVKHIIERLIRRFGYDYIEANFPEEDRRLLTNIRKMRNRNKRKDEEVTTGVSDVAATKGSRFMSAFDEAVYGSDEENDNGSDQEENVAGGKMKNGAKQFIVESGDNPLDLLDSQTLAHISSTRPKKFNKNQNRARFNDDAFNFDSEGKLVVKGQPKPSTNVDDPLSAVTSGINAYLEAVKSGPVRGQRNKLKFRKNGKDSDEFGDDDDGEKDSRLMRGRVNQGNKIGKHNKKGPKFKSRKKL
On to B1, for which the binding entry was “binds”.
